# Experimental data published in patent publication US9593146B2, “CD44v6-derived peptides for treating metastasizing cancer” (AMCURE GMBH, priority 2012, dated 2017).
# Not every detail of the peptide structures is certain; ends, links or a residue may be inferred. Residues, ends and D or L forms follow the SMILES beside them.
# Assays:
# HT29 cells = experiment: HGF induced scattering of HT29 cells; type: cell-based; conditions: HT29, HGF 50 ng/ml 24 h, human peptides prior to induction (FIG. 17)
# Procedure: FIG. 17: The human CD44 v6 specific peptides block HGF induced cell scattering and invasion into matrigel. Scattering of HT29 cells was determined in 24-well plates. First, 4.5×10^4 cells were seeded at 37° C.; after 24 h the cells were serum starved for additional 24 h. the cells were either left untreated (control) or later treated with HGF (50 ng/ml) for 24 h. Where indicated the cells were treated with the v6 specific peptide (human v6 5mer, 10mer, 14mer) or control peptide prior to induction with HGF for 30 min. Pictures were made using phase contrast microscopy. Magnification 40×.
# A scatter assay was performed additionally. HT29 colon cancer cells were grown in medium containing 10% FCS. One day after seeding, the cells were starved. On the third day, the cells were induced with HGF (10 ng/ml) and pre-incubated with either no peptide, ctrl-peptides (SEQ ID No.: 15), non-pegylated v6-peptides (SEQ ID No.: 11) or the pegylated peptides, namely PEG-rat control peptide and PEG-rat CD44v6 peptide.
# Scattering of HT29 cells was determined in 24-well plates. First, 4×10^5 cells were seeded at 37° C.; the cells were either left untreated or 48 h later treated with HGF (50 ng/ml) for 24 h or with PEGylated or non-PEGylated peptides (100 ng/ml) prior to HGF induction for 30 min.
# L3.6pl cells [1] = experiment: Regression of established metastases, L3.6pl orthotopic mouse model; type: in vivo, nude mice; conditions: treatment started three weeks after implantation; human v6 peptide or rat control peptide 20 μg i.p.
# Procedure: In order to examine the regression of metastases (either BSp73ASs6 or L3.6pl) were implanted as described above. Tumor growth was allowed for three weeks. At that time all animals had developed metastases in the control group. Animals were injected i.p. with 20 μg (L3.6pl orthotopic mouse model: human v6 peptide or rat control peptide) or i.v. with 200 μg (rat syngeneic model: rat v6 peptide or mouse control peptide) of peptides three times per week. Animals were killed 23 days after the start of the peptide treatment.
# The specific binding of the CD44v6 peptides to specific areas of the lungs in the rat system and of the liver in the human model raises the question whether these peptides might have an effect on already established metastases. In the experiments described in FIGS. 2 and 4 the peptides were applied early after injection of the tumor cells and repressed completely the establishment of metastases. In order to measure the effect of the CD44v6 peptide on already established metastases, other experimental settings were used. […] At the end of the experiments metastases could be detected in all animals treated with the control peptide (Table 3, FIG. 6B for the BSp73ASs6 cells, Table 3, FIG. 6C for L3.6pl cells) whereas animals treated with the species-specific CD44v6 peptides were free of metastasis. […]
# Met and ERK = experiment: HGF induced activation of Met and ERK in L3.6pl cells (Western blot); type: cell-based, human; conditions: peptide prior to induction with 10 ng/ml HGF
# Procedure: Serum-starved cells (24 hours) were induced with the growth factor HGF (10 ng/mL) at 37° C. for 5 minutes. Where indicated, the cells were treated with peptides (100 ng/ml) prior to induction at 37° C. for 10 minutes (100 ng/mL CD44v6 peptide or control peptide). Following the induction with HGF, cells were washed with ice-cold phosphate-buffered saline (PBS). To detect activated Met and Erk, cells were lysed in sodium dodecyl sulfate (SDS)-sample buffer containing 100 mM dithiothreitol (DTT), boiled and subjected to western blot analysis using antibodies against phospho-Met and ERK. The loading controls were performed on the same blot after stripping (62.5 mM Tris, pH 6.8, 2% SDS, 0.8% DTT) by probing with the Met respectively ERK antibody. Blots were stained using the enhanced chemiluminescence system (Thermo Fisher Scientific, Schwerte, Germany). Bands in western blot analysis were quantified with the program Image J (National Institutes of Health).
# ErbB receptors = experiment: EGF / TGFα induced Erk phosphorylation in MCF7; type: cell-based, human; conditions: 100 ng/ml peptide
# L3.6pl cells [2] = experiment: Human orthotopic model of pancreatic cancer, L3.6pl cells in nude mice; type: in vivo
# Procedure: In the case of the human orthotopic model, L3.6pl pancreatic carcinoma cells (passage 24-26) were suspended in Hank's balanced salt solution (Invitrogen, Karlsruhe, Germany) after trypsinization. The cells were injected orthotopically in the pancreas of male nude mice as described (Bruns C J et al. (1999) Neoplasia 1(1):50-62). Two groups of 15 mice each were injected i.p. 7 days later with either the human v6 peptide respectively rat control peptide (20 μg). For all experiments described and depicted herein either the rat 14mer control peptide or the human 14mer peptide were used. All experiments were then repeated with the rat 5mer control peptide or the human 5mer peptide (N-R-W-H-E, SEQ ID NO: 2). […] The injection was repeated three times per week for 21 days. Two days after the last treatment the animals were killed. […]
# A comparison of different CD44v6 peptide derivatives was performed in animals bearing a orthotopic L3.6pl tumor. 10 groups of 5 animals each received a dose of 20 μg peptide per injection three times per week for 3 weeks with the compounds listed in Table 4. Three weeks after starting the treatment the animals were sacrificed and analyzed for macroscopic metastases and tumor volume.
compound,measurement,setting,value
"N=C(N)NCCC[C@H](NC(=O)[C@@H](N)CC(N)=O)C(=O)N[C@@H](Cc1c[nH]c2ccccc12)C(=O)N[C@@H](Cc1c[nH]cn1)C(=O)N[C@@H](CCC(=O)O)C(=O)O [human 5mer, NRWHE] (H-NRWHE-OH; N-terminus and C-terminus assumed)",HGF induced scattering or invasion through the extracellular matrix,HT29 cells,prevented completely scattering or invasion through the extracellular matrix
same,presence of already established (liver) metastases after treatment,L3.6pl cells [1],eliminate already established metastases
same,Phosphorylation of Met and ERK,Met and ERK,inhibited
same,Erk phosphorylation upon EGF treatment,ErbB receptors; 20 ng/ml EGF (FIG. 16),blocking of Erk phosphorylation upon EGF treatment
same,Erk phosphorylation upon TGFα induction,ErbB receptors; 20 ng/ml TGFα (FIG. 16),not upon TGFα induction
same,primary tumor growth,"L3.6pl cells [2]; 2 μg, 20 μg, 200 μg per injection i.p. three times per week for 4 weeks",reduction of primary tumor growth
same,metastatic spreading of tumor cells,"L3.6pl cells [2]; 2 μg, 20 μg, 200 μg per injection i.p. three times per week for 4 weeks, start one week after implantation",prevented metastatic spreading of tumor cells
same,all experiments of the human orthotopic model repeated with 5mer peptides,L3.6pl cells [2]; 20 μg i.p. three times per week for 21 days,The same results as for the 14mer peptides were observed
same,metastasis formation (liver),"L3.6pl cells [2]; 20 μg i.p. three times per week for three weeks, start 7 days after implantation",capable of inhibiting metastasis
same,metastasis at 20 μg per injection,L3.6pl cells [2]; 20 μg per injection i.p. three times per week,complete block of metastasis
same,metastasis at a tenfold lower concentration,L3.6pl cells [2]; tenfold lower than 20 μg per injection,inhibitory effects were already observed
